Reference: PubChem BioAssay AID1259254 (NCATS, 2017)

Test: 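Genome-wide screen for genes that prevent DNA re-replication in cancer cells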 (primary screen)
Cell system: human HCT116 colorectal cancer cells
Reagents: single siRNA against human genes
Duration: 3 days
Read-out: 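Imaged Hoechst DNA stain sorts each cell into a cycle phase by DNA amount; per plate, G2 fraction set to 0% for non-targeting and 100% for GMNN siRNA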
Reading the numbers: G2 robust z-score and G2 cells, % of GMNN control: higher = more G2 cells, more excess DNA replication; raw share of cells in G2: higher = larger share of cells with G2 DNA content
Active means: 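An siRNA counts as active if its G2 robust z-score lies at least 5 MADs above the screen median; here such calls match roughly 38% of GMNN control or more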
The whole screen tested about 59,000 reagents; below is an unselected part. About 1,550 of all reagents (2.6%) were called active. 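G2 share is only a proxy for re-replication; each gene was hit by three separate siRNAs, and active genes were retested.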 Raw values vary from plate to plate and are shown uncorrected. Entries without a mark were called inactive. The numbers tell different reagents against one gene apart. No sequences are given here. The record does not give: the amount of reagent.

target | reagent no. | G2 robust z-score | G2 cells, % of GMNN control | raw share of cells in G2 (%)
IGF1R (insulin like growth factor 1 receptor) | 1 | -1.53 | -7.79 | 2.78
IGF1R (insulin like growth factor 1 receptor) | 2 | -0.943 | -3.67 | 4.4
IGF1R (insulin like growth factor 1 receptor) | 3 | -0.0484 | 2.63 | 4.95
RANBP3 (RAN binding protein 3) | 1 | 1.04 | 10.3 | 8.88
RANBP3 (RAN binding protein 3) | 2 | -0.714 | -2.06 | 3.6
RANBP3 (RAN binding protein 3) | 3 | 1.18 | 11.3 | 8.75
C6orf62 (chromosome 6 open reading frame 62) | 1 | 0.247 | 4.71 | 5.67
C6orf62 (chromosome 6 open reading frame 62) | 2 | -0.983 | -3.95 | 2.29
C6orf62 (chromosome 6 open reading frame 62) | 3 | -0.657 | -1.66 | 1.9
SPRYD3 (SPRY domain containing 3) | 1 | -0.468 | -0.323 | 4.36
SPRYD3 (SPRY domain containing 3) | 2 | -0.479 | -0.404 | 4.79
SPRYD3 (SPRY domain containing 3) | 3 | -0.282 | 0.982 | 6.13
NIM1K (NIM1 serine/threonine protein kinase) | 1 | 0.0448 | 3.28 | 4.78
NIM1K (NIM1 serine/threonine protein kinase) | 2 | 1.03 | 10.2 | 6.38
NIM1K (NIM1 serine/threonine protein kinase) | 3 | 0.113 | 3.76 | 3.95
RBP5 (retinol binding protein 5) | 1 | -0.492 | -0.497 | 5.22
RBP5 (retinol binding protein 5) | 2 | -1.06 | -4.52 | 2.56
RBP5 (retinol binding protein 5) | 3 | 0.918 | 9.42 | 8.28
FNDC9 (fibronectin type III domain containing 9) | 1 | -0.485 | -0.448 | 4.61
FNDC9 (fibronectin type III domain containing 9) | 2 | 0.461 | 6.21 | 6.07
FNDC9 (fibronectin type III domain containing 9) | 3 | 1.03 | 10.2 | 7.57
ZNF33B (zinc finger protein 33B) | 1 | -0.191 | 1.62 | 4.07
ZNF33B (zinc finger protein 33B) | 2 | -0.669 | -1.74 | 5.21
ZNF33B (zinc finger protein 33B) | 3 | 0.342 | 5.37 | 5.59
FKBP15 (FKBP prolyl isomerase family member 15) | 1 | 0.541 | 6.77 | 6.96
FKBP15 (FKBP prolyl isomerase family member 15) | 2 | 1.38 | 12.7 | 9.43
FKBP15 (FKBP prolyl isomerase family member 15) | 3 | 0.668 | 7.67 | 5.98
NFX1 (nuclear transcription factor, X-box binding 1) | 1 | 0.232 | 4.6 | 5.28
NFX1 (nuclear transcription factor, X-box binding 1) | 2 | -0.308 | 0.797 | 5.22
NFX1 (nuclear transcription factor, X-box binding 1) | 3 | -0.349 | 0.511 | 3.29
RABEP1 (rabaptin, RAB GTPase binding effector protein 1) | 1 | 4.13 | 32.1 | 19.3
RABEP1 (rabaptin, RAB GTPase binding effector protein 1) | 2 | 0.374 | 5.6 | 6.11
RABEP1 (rabaptin, RAB GTPase binding effector protein 1) | 3 | -0.344 | 0.549 | 3.54
KIR3DL3 | 1 | 1.51 | 13.6 | 9.55
KIR3DL3 | 2 | 0.179 | 4.22 | 4.59
KIR3DL3 | 3 | 1.96 | 16.8 | 6.72
NFIC (nuclear factor I C) | 1 | -0.235 | 1.32 | 3.63
NFIC (nuclear factor I C) | 2 | 0.897 | 9.28 | 8.95
NFIC (nuclear factor I C) | 3 | 0.984 | 9.89 | 9.39
AP4E1 (adaptor related protein complex 4 subunit epsilon 1) | 1 | -0.0375 | 2.7 | 5.06
AP4E1 (adaptor related protein complex 4 subunit epsilon 1) | 2 | 0.882 | 9.17 | 7.01
AP4E1 (adaptor related protein complex 4 subunit epsilon 1) | 3 | 2.66 | 21.7 | 15.1
SRPX (sushi repeat containing protein X-linked) | 1 | -0.141 | 1.97 | 6.01
SRPX (sushi repeat containing protein X-linked) | 2 | 1.18 | 11.3 | 8.37
SRPX (sushi repeat containing protein X-linked) | 3 | 0.13 | 3.88 | 4.72
COMTD1 (catechol-O-methyltransferase domain containing 1) | 1 | 0.704 | 7.92 | 9.35
COMTD1 (catechol-O-methyltransferase domain containing 1) | 2 | -0.702 | -1.97 | 3.74
COMTD1 (catechol-O-methyltransferase domain containing 1) | 3 | -1.3 | -6.15 | 2.33

Part of the list above, set out differently.
target,reagent no.,G2 robust z-score,"G2 cells, % of GMNN control",raw share of cells in G2 (%)
SRPX (sushi repeat containing protein X-linked),3,0.13,3.88,4.72
COMTD1 (catechol-O-methyltransferase domain containing 1),1,0.704,7.92,9.35
COMTD1 (catechol-O-methyltransferase domain containing 1),2,-0.702,-1.97,3.74
